This assay addresses GFP-CASK (wild-type) (human) (UniProt O14936). Briefly: co-IP; GFP-CASK (wild-type or mutant) held on GFP-Trap agarose beads from lysates of transfected HEK-293 cells (PBS, 2 mM DTT, 2 mM EDTA, protease inhibitors, 1% Triton-X; 1 hour at 4°C); liprin-α3 or FLAG-Mint-1 co-transfected, Veli native; western blot with anti-liprin-α3, anti-FLAG or anti-velis.

Sequences of proteins named here, by UniProt entry; tags and fusion partners are left off. A change or cut given only in a name is not applied to a line headed by its entry.
UniProt O14936: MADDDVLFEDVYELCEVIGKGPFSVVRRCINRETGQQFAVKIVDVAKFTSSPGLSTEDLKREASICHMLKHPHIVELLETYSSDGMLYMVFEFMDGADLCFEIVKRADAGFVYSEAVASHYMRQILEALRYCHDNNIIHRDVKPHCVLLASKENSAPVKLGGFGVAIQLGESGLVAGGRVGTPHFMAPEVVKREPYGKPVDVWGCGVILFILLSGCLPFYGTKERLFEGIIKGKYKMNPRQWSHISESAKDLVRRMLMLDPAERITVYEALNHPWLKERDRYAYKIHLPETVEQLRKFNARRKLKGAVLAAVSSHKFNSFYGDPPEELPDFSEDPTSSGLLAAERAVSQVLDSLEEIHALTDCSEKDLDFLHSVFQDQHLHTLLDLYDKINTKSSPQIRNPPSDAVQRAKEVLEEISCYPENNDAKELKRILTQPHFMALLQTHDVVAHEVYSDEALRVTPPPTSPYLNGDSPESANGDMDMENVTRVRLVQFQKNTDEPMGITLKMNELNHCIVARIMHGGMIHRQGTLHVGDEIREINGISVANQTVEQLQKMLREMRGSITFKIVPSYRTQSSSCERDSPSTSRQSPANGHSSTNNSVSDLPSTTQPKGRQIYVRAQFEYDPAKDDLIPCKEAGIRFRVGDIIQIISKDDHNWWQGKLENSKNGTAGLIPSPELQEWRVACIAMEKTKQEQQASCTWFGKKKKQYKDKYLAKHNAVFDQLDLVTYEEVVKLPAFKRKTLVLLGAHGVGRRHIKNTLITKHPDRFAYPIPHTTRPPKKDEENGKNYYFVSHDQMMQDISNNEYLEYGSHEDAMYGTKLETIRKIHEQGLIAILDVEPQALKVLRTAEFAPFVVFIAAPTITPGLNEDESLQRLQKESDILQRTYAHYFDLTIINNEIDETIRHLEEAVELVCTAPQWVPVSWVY
UniProt O75145: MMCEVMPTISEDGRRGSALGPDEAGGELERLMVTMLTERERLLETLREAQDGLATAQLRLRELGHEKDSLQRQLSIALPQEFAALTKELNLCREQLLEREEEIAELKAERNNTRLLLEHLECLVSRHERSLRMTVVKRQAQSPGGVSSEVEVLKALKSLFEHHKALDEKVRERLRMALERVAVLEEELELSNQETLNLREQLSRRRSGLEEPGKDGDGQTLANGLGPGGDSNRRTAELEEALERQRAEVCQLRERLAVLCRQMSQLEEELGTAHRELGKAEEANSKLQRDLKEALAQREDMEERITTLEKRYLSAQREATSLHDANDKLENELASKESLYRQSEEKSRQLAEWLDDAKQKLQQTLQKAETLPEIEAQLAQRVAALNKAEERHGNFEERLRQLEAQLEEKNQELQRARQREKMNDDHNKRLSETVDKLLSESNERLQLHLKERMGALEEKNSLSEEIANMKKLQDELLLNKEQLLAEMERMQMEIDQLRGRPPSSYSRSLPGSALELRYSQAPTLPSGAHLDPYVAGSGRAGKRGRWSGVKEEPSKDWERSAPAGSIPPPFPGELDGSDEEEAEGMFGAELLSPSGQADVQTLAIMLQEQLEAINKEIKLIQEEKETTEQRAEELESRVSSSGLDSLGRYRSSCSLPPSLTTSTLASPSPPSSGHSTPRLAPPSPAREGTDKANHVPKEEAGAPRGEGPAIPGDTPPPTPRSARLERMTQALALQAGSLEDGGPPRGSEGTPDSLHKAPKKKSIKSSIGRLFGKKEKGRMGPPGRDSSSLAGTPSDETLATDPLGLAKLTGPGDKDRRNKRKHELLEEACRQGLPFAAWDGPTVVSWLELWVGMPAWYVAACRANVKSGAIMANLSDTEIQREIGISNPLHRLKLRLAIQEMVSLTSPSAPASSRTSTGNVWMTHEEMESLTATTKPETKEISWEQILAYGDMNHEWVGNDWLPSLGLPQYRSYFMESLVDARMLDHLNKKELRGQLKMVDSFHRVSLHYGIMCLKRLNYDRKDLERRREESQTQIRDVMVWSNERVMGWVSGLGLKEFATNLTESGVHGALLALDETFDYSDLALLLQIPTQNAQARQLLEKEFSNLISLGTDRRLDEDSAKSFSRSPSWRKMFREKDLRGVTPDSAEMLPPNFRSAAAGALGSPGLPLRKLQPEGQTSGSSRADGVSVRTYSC

No constants are given. Whether binding was seen depends on the method and setting. Binding seen in cells or lysates may run through a third protein. Binding can be weak; no strength is given.

Take liprin-α3 (from UniProt O75145 1-1194): the binding result is listed as “binds”.

(Values after paper PMC3914952.)
